These are yes or no findings as the source states them, for the method shown. In cells and extracts the contact can be indirect. Tags and fused reporters may be left off the sequences shown.
Target: T1, Swt21-TAP (TAP-tagged Swt21p) (S. cerevisiae) (UniProt P53873)
T1 sequence: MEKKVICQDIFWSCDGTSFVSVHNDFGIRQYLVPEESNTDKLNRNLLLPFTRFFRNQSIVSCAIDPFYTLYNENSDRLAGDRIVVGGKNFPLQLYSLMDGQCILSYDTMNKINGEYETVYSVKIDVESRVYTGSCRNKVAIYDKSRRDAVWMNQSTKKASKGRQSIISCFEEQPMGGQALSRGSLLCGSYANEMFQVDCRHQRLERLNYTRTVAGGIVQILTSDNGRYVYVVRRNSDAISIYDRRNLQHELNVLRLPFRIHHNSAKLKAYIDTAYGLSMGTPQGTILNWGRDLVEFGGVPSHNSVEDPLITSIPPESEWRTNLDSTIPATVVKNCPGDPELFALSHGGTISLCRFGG
Experiment: co-IP; extracts (without ATP or pre-mRNA) from Non-TAP and Swt21-TAP strains carrying Nam8-HA incubated with IgG Sepharose 6 Fast Flow, 2 h at 4 °C, IPP300 buffer; precipitates blotted with anti-HA

binding: no binding
B1: Nam8-HA (HA-tagged Nam8p) (protein, UniProt Q00539 1-523)
chain: MSYKQTTYYPSRGNLVRNDSSPYTNTISSETNNSSTSVLSLQGASNVSLGTTGNQLYMGDLDPTWDKNTVRQIWASLGEANINVRMMWNNTLNNGSRSSMGPKNNQGYCFVDFPSSTHAANALLKNGMLIPNFPNKKLKLNWATSSYSNSNNSLNNVKSGNNCSIFVGDLAPNVTESQLFELFINRYASTSHAKIVHDQVTGMSKGYGFVKFTNSDEQQLALSEMQGVFLNGRAIKVGPTSGQQQHVSGNNDYNRSSSSLNNENVDSRFLSKGQSFLSNGNNNMGFKRNHMSQFIYPVQQQPSLNHFTDPNNTTVFIGGLSSLVTEDELRAYFQPFGTIVYVKIPVGKCCGFVQYVDRLSAEAAIAGMQGFPIANSRVRLSWGRSAKQTALLQQAMLSNSLQVQQQQPGLQQPNYGYIPSSTCEAPVLPDNNVSSTMLPGCQILNYSNPYANANGLGSNNFSFYSNNNATNTQATSLLADTSSMDLSGTGGQQVIMQGSEAVVNSTNAMLNRLEQGSNGFMFA

Reference: article PMC12192654
